{"source": "patent US20030199424A1", "about": "“Method of treatment and/or prophylaxis” (priority 2002, published 2003)", "key": {"STZ-diabetic rats": {"test_system": "STZ-diabetic rats", "experiment": "Opioid-mediated antinociception (Von Frey, % MPE) in STZ-diabetic rats"}, "non-diabetic rats": {"test_system": "non-diabetic rats", "experiment": "Opioid-mediated antinociception (Von Frey, % MPE) in non-diabetic control rats", "type": "in vivo, rat", "settings": "morphine 2.4 mg/kg s.c.", "method": "A second group of STZ-diabetic rats received vehicle (DMSO:water 10:90) by oral gavage (protocol-control rats). In the third group, weight-matched, naive, non-diabetic control rats (non-diabetic candesartan control rats) were also treated with candesartan for one wk prior to opioid antinociceptive testing to determine any intrinsic effects of candesartan on baseline pain scores and on opioid-mediated antinociception.\nThe statistical significance criterion was p<0.05."}, "[1]": {"settings": "morphine 2.4 mg/kg s.c., candesartan (0.5 mg/kg/day) treated STZ-diabetic rats, 9 wks post-STZ"}, "[2]": {"settings": "morphine 6.1 mg/kg s.c., control STZ-diabetic rats, 3 wks post-STZ"}, "[3]": {"settings": "morphine 6.1 mg/kg s.c., control STZ-diabetic rats, 9 wks post-STZ"}, "[4]": {"settings": "morphine 14 mg/kg s.c., candesartan (0.5 mg/kg/day) treated STZ-diabetic rats, 12 wks post-STZ"}, "[5]": {"settings": "morphine 14 mg/kg s.c., control STZ-diabetic rats, 12 wks post-STZ"}, "[6]": {"settings": "morphine 18 mg/kg s.c., candesartan (0.5 mg/kg/day) treated STZ-diabetic rats, 21 wks post-STZ"}, "[7]": {"settings": "morphine 18 mg/kg s.c., candesartan (0.5 mg/kg/day) treated STZ-diabetic rats, 24 wks post-STZ"}, "[8]": {"settings": "morphine 18 mg/kg s.c., control STZ-diabetic rats, 24 wks post-STZ"}}, "note": "Several values for one entry are separate records, joined by “and”; a condition that tells them apart may be missing. Identical values can stand only once.", "data": [{"smiles": "CN1CC[C@]23c4c5ccc(O)c4O[C@H]2[C@@H](O)C=C[C@H]3[C@H]1C5", "note": "[morphine]", "values": [{"measurement": "Mean (±SEM) % MPE AUC", "setting": "STZ-diabetic rats; morphine 2.4 mg/kg s.c., STZ-diabetic rats, 4 wks candesartan (2.0 mg/kg/day) re-initiation", "value": "120 (±12.9) % MPE.h"}, {"measurement": "Mean (±SEM) % MPE AUC", "setting": "STZ-diabetic rats; morphine 2.4 mg/kg s.c., STZ-diabetic rats, 6 wks after cessation of candesartan 2.0 mg/kg/day (stopped at 24 wks post-STZ)", "value": "112±14.2 % MPE.h and 112 (±14.1) % MPE.h"}, {"measurement": "Mean (±SEM) % MPE AUC", "setting": "STZ-diabetic rats; morphine 2.4 mg/kg s.c., STZ-diabetic rats, 6 wks candesartan (2.0 mg/kg/day) re-initiation", "value": "130±7.5 % MPE.h and 131 (±7.6) % MPE.h"}, {"measurement": "Mean (±SEM) dose normalised % MPE AUC", "setting": "STZ-diabetic rats; morphine 2.4 mg/kg s.c., candesartan (0.5 mg/kg/day) treated STZ-diabetic rats, 3 wks post-STZ", "value": "81.4 (±2.9) % MPE AUC.h.kg.mg^−1"}, {"measurement": "Mean (±SEM) % MPE AUC", "setting": "STZ-diabetic rats; [1]", "value": "99 (±12.9) % MPE.h"}, {"measurement": "Mean (±SEM) dose normalised % MPE AUC", "setting": "STZ-diabetic rats; [1]", "value": "41.1 (±5.4) % MPE AUC.h.kg.mg^−1"}, {"measurement": "Mean (±SEM) % MPE AUC", "setting": "STZ-diabetic rats; morphine 2.4 mg/kg s.c., candesartan (2.0 mg/kg/day) treated STZ-diabetic rats, 3 wks post-STZ", "value": "126 (±13.2) % MPE.h"}, {"measurement": "Mean (±SEM) % MPE AUC", "setting": "STZ-diabetic rats; morphine 2.4 mg/kg s.c., candesartan (2.0 mg/kg/day) treated STZ-diabetic rats, 9 wks post-STZ", "value": "138 (±10.9) % MPE.h"}, {"measurement": "Mean (±SEM) % MPE AUC", "setting": "STZ-diabetic rats; morphine 2.4 mg/kg s.c., candesartan (2.0 mg/kg/day) treated STZ-diabetic rats, 12 wks post-STZ", "value": "158 (±10.2) % MPE.h"}, {"measurement": "Mean (±SEM) % MPE AUC", "setting": "STZ-diabetic rats; morphine 2.4 mg/kg s.c., candesartan (2.0 mg/kg/day) treated STZ-diabetic rats, 24 wks post-STZ", "value": "135±9.8 % MPE.h and 135 (±9.8) % MPE.h and 135 (±9.2) % MPE.h"}, {"measurement": "Mean (±SEM) % MPE AUC", "setting": "STZ-diabetic rats; morphine 2.4 mg/kg s.c., low-dose candesartan (0.5 mg/kg/day) treated STZ-diabetic rats, 3 wks post-STZ", "value": "195 (±6.9) % MPE.h"}, {"measurement": "Mean (±SEM) % MPE AUC", "setting": "STZ-diabetic rats; [2]", "value": "171 (±5.9) % MPE.h"}, {"measurement": "Mean (±SEM) dose normalised % MPE AUC", "setting": "STZ-diabetic rats; [2]", "value": "28.0 (±1.0) % MPE AUC.h.kg.mg^−1"}, {"measurement": "Mean (±SEM) % MPE AUC", "setting": "STZ-diabetic rats; [3]", "value": "182 (±9.1) % MPE.h"}, {"measurement": "Mean (±SEM) dose normalised % MPE AUC", "setting": "STZ-diabetic rats; [3]", "value": "29.8 (±1.5) % MPE AUC.h.kg.mg^−1"}, {"measurement": "Mean (±SEM) % MPE AUC", "setting": "STZ-diabetic rats; [4]", "value": "166 (±6.7) % MPE.h"}, {"measurement": "Mean (±SEM) dose normalised % MPE AUC", "setting": "STZ-diabetic rats; [4]", "value": "17.1 (±0.5) % MPE AUC.h.kg.mg^−1"}, {"measurement": "Mean (±SEM) % MPE AUC", "setting": "STZ-diabetic rats; [5]", "value": "34 (±11.4) % MPE.h"}, {"measurement": "Mean (±SEM) dose normalised % MPE AUC", "setting": "STZ-diabetic rats; [5]", "value": "2.5 (±0.8) % MPE AUC.h.kg.mg^−1"}, {"measurement": "Mean (±SEM) % MPE AUC", "setting": "STZ-diabetic rats; [6]", "value": "71 (±11.2) % MPE.h"}, {"measurement": "Mean (±SEM) dose normalised % MPE AUC", "setting": "STZ-diabetic rats; [6]", "value": "3.9(±0.6) % MPE AUC.h.kg.mg^−1"}, {"measurement": "Mean (±SEM) % MPE AUC", "setting": "STZ-diabetic rats; [7]", "value": "92 (±5.0) % MPE.h"}, {"measurement": "Mean (±SEM) dose normalised % MPE AUC", "setting": "STZ-diabetic rats; [7]", "value": "5.1 (±0.3) % MPE AUC.h.kg.mg^−1"}, {"measurement": "Mean (±SEM) % MPE AUC", "setting": "STZ-diabetic rats; [8]", "value": "26 (±4.5) % MPE.h"}, {"measurement": "Mean (±SEM) dose normalised % MPE AUC", "setting": "STZ-diabetic rats; [8]", "value": "1.4 (±0.2) % MPE AUC.h.kg.mg^−1"}, {"measurement": "Mean (±SEM) % MPE AUC", "setting": "non-diabetic rats; candesartan (2.0 mg/kg/day) treated non-diabetic rats", "value": "140 (±8.3) % MPE.h"}, {"measurement": "Mean (±SEM) % MPE AUC", "setting": "non-diabetic rats; protocol control (weight-matched non-diabetic rats, once daily oral vehicle)", "value": "149±18.8 % MPE.h and 149 (±18.8) % MPE.h and 149 (±7.7) % MPE.h"}, {"measurement": "Mean (±SEM) dose normalised % MPE AUC", "setting": "non-diabetic rats; protocol control non-diabetic rats", "value": "62.0 (±3.2) % MPE AUC.h.kg.mg^−1"}]}]}
